Source: PMC7862700
The entries are a selection whose mix differs from that of the whole data set. For some of these results: At the low end of the ranking the order means little. The list shows a part of the results. For some of these results: The exact form of the protein is not confirmed.

Experiments:
[1] = target: T1, ERG (UniProt P11308); experiment: DAPPL (digital affinity profiling via proximity ligation, sequencing); settings: 10 mM Tris-HCl pH 7.5, 50 mM NaCl, 1 mM DTT, 4% glycerol, room temperature, 30 min; GST-TFs on glutathione beads, 16-mer random dsDNA library, 0.1% …; high values mean tight binding; double strand, one strand shown; scale: fold enrichment (6-mer frequency, TF over GST control)
T1 sequence: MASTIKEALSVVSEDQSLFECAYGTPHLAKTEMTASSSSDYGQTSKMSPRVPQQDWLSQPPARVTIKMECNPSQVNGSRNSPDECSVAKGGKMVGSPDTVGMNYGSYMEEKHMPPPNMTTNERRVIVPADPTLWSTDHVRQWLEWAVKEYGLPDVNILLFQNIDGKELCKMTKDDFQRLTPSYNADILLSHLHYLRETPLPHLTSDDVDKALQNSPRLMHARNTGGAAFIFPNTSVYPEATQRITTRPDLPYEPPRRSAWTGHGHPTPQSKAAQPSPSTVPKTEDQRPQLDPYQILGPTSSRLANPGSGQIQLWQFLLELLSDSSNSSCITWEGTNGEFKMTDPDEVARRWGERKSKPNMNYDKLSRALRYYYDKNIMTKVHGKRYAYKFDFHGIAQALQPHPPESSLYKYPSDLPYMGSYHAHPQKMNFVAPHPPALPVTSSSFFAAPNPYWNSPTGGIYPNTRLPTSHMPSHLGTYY

[2] = target: T2, ETV4 (UniProt P43268); experiment: as above; settings: 10 mM Tris-HCl pH 7.5, 50 mM NaCl, 1 mM DTT, 4% glycerol, room temperature, 30 min; GST-TFs on glutathione beads, 16-mer random dsDNA library, 0.1% …; high values mean tight binding; double strand, one strand shown; scale: fold enrichment (6-mer frequency, TF over GST control)
T2 sequence: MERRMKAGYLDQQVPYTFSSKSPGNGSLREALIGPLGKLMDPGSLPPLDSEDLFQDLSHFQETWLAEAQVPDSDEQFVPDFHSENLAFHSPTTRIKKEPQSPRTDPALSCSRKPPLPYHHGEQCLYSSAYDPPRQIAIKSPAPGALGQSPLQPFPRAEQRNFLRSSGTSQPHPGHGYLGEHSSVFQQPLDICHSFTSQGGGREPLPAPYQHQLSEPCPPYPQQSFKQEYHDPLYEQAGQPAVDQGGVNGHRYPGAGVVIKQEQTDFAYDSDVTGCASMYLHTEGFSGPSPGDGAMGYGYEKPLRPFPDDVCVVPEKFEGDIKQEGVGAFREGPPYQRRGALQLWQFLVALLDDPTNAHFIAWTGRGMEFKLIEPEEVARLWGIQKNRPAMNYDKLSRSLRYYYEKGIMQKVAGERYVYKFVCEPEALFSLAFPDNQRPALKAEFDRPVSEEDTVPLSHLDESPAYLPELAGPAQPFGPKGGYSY

| Sequence | binding signal [1] | binding signal [2] |
| --- | --- | --- |
| AAGTCT | 1.12 | 1.12 |
| CTGAGC | 1.09 | 1.18 |
| CGAGTT | 0.98 | 1.07 |
| CTTGGA | 1.17 | 1.24 |
| TTCGTT | 1.25 | 1.29 |
| TTCGTA | 1.38 | 1.44 |
| TTCTTT | 1.27 | 1.2 |
| TTCACC | 1.38 | 1.38 |
| CACGAA | 1.1 | 1.05 |
| CGCTTT | 1.15 | 1.18 |
| CTGTAA | 0.994 | 1.03 |
| CCATAA | 1.17 | 1.16 |
| CCTCCC | 1.47 | 1.57 |
| CCCGAC | 1.43 | 1.3 |
| ATAAAC | 1.11 | 1.11 |
| TCACGC |  | 1.28 |
| TGTAGC | 1.11 | 1.23 |
| GCTTGC | 1.14 | 1.21 |
| ACTTTT | 1.21 | 1.29 |
| TCCTAC | 1.42 | 1.55 |
| CTGTCA |  | 1.15 |

Some values from the list.
Entry for CCCGAC under binding signal [2]: 1.3
Entry for TGTAGC under binding signal [1]: 1.11

Continuation:

| Sequence | binding signal [1] | binding signal [2] |
| --- | --- | --- |
| ATTGAA | 1.05 | 1.05 |
| TATCAT | 1.13 | 1.16 |
| GAACAC | 1.17 | 1.05 |
| TCTTAA | 1.21 | 1.27 |
| GATCCT | 1.38 | 1.31 |
| TAATAG | 1.11 | 1.18 |
| ATGATC |  | 1.23 |
| CCTATC | 1.15 | 1.23 |
| CCTCTA | 1.32 | 1.41 |
| GGCTAG | 1.1 | 1.01 |
| GAACCC | 1.18 | 1.07 |
| TTTATA | 1.29 | 1.44 |
| ATTACG |  | 1.2 |
| TACGCC |  | 1.2 |
| TCTTCA | 1.16 | 1.27 |
| TATTAA | 1.12 | 1.12 |
| CGACAC | 1.23 | 1.16 |
| GAATAC | 0.985 | 1.03 |
| CTTGCC | 1.24 | 1.33 |
| CGCCGA | 1.1 | 1.19 |
| CCTACA | 1.21 | 1.32 |

Not a retest: entries from further up.

| Sequence | binding signal [1] | binding signal [2] |
| --- | --- | --- |
| CGCTTT | 1.15 | 1.18 |
| CTGTAA | 0.994 | 1.03 |

(listing goes on)

| Sequence | binding signal [1] | binding signal [2] |
| --- | --- | --- |
| CCGATA | 1.14 | 1.15 |
| TCTGCA | 1.25 | 1.41 |
| TTGTCT | 1.15 | 1.21 |
| ACGTTC | 1.39 | 1.35 |
| CATCTA | 1.11 | 1.16 |
| TATGGA | 1.15 | 1.15 |
| TATGCG | 1.31 | 1.38 |
| ATACCT | 1.05 | 1.13 |
| TTTGGT | 1.31 | 1.24 |
| TAAAGA | 1.14 | 1.13 |
| TGGTAG | 1 | 1.11 |
| AACATG | 1.16 | 1.11 |
| CTTTTA | 1.28 | 1.31 |
| CTGGTT | 1.31 | 1.33 |
| CGTTAC | 1.11 | 1.14 |
| TTTACG | 1.26 | 1.26 |
| TATTCG | 1.14 | 1.11 |
| TAGTAC | 1.24 | 1.16 |
| GATTTC | 2.15 | 1.67 |
| CGCTTC | 2.07 | 2.28 |
| AGCCTC | 1.21 | 1.3 |
